Measured values taken from the supplement of paper PMC12873370.
Several values for one entry are separate records, joined by “and”; a condition that tells them apart may be missing. Equal entries are not always repeated. This is one part of the list. Single values are uncertain, as repeats are few or missing.

Columns and labels:
[1] = test system: MEPP (mouse ovarian epithelium Trp53/Pten KO); assay: cell viability relative to untreated (fraction); higher = less growth inhibition; settings: 5 µM; 3 days
[2] = test system: PREPP (mouse prostate epithelium Trp53/Pten KO); assay: as above; settings: 5 µM; 3 days

Row | Structure (SMILES) | cell viability [1] | cell viability [2]
1 | N[C@@H](Cc1c[nH]cn1)C(=O)O | 1.06 | 0.978
2 | Cc1coc2c1C(=O)C(=O)c1c-2ccc2c1CCCC2(C)C | 0.975 | 1.22
3 | O=c1ccn(C2OC(CO)C(O)C2O)c(=O)[nH]1 (stereo not given) | 0.902 | 1.09
4 | CC(O)C(=O)O (stereo not given) | 1.63 | 0.863
5 | C=C1c2cccc(O)c2C(=O)C2=C(O)[C@]3(O)C(=O)C(C(N)=O)=C(O)[C@@H](N(C)C)[C@@H]3[C@@H](O)[C@H]12 | 0.958 | 0.972
6 | CNC(=N)NCCC[C@H](N)C(=O)O | 0.772 | 0.98
7 | NC(=O)CC[C@H](NC(=O)Cc1ccccc1)C(=O)O | 0.897 | 0.958
8 | CN[C@@H]1[C@H](O)[C@H](NC)[C@H]2O[C@@]3(O)C(=O)C[C@@H](C)O[C@H]3O[C@@H]2[C@H]1O | 0.81 and 0.854 | 0.989 and 0.908
9 | Nc1ccc(S(=O)(=O)c2ccc(N)cc2)cc1 | 0.812 | 0.837
10 | O=c1c(O)c(-c2cc(O)c(O)c(O)c2)oc2cc(O)cc(O)c12 | 0.809 | 1.37
11 | COc1ccccc1OCC(O)CO (stereo not given) | 1.1 | 0.957
12 | O=C(O)C1=CO[C@@H](O[C@@H]2O[C@H](CO)[C@@H](O)[C@H](O)[C@H]2O)[C@@H]2C(CO)=CC[C@H]12 | 1.1 | 0.946
13 | CC(=O)N[C@@H](Cc1ccccc1)C(=O)O | 1.09 | 0.974
14 | C=C(OP(=O)(O)O)C(=O)O | 0.906 | 0.871
15 | CC1=NCC[C@@H](C(=O)O)N1 | 0.888 | 1.33

Complete entries, looked up by structure:
`O=c1ccn(C2OC(CO)C(O)C2O)c(=O)[nH]1` (stereo not given) in the list: cell viability [1]: 0.902; cell viability [2]: 1.09
`O=C(O)C1=CO[C@@H](O[C@@H]2O[C@H](CO)[C@@H](O)[C@H](O)[C@H]2O)[C@@H]2C(CO)=CC[C@H]12` in the list: cell viability [1]: 1.1; cell viability [2]: 0.946
